Patent US20070161547A1, “Modulation of survivin expression” (priority 2003, published 2007)
Some results were stated once for a whole list of compounds, not compound by compound. d = 2'-deoxy (DNA)

What was measured:
human survivin mRNA = assay: IC50 of dsRNA for survivin mRNA, dose response by quantitative RT-PCR ("D"); format: cell-based; conditions: canonical siRNA, read-out: IC50, inhibition of survivin, RT-PCR assay
Method: Representative parameters that can be studied include, for example, translation of survivin mRNAs or survivin protein synthesis; effect on surrogate markers; or any other parameter that is indicative of potential dsRNA therapeutic effectiveness that can be conveniently measured in vitro.
(§1) For western blot analysis, cells are plated in 10 cm tissue culture dishes (Falcon, #3003) at a density of 7.5×10^5 cells/dish. For RT-PCR analysis, 96-well plates (Corning Incorporated, #3596) are plated with 1×10^4 cells/well. Lipofectin (GIBCO/Invitrogen) transfection reagent is used at a concentration of 3 ul/ml OPTIMEM reduced serum medium (Gibco/Invitrogen)/100 nM siRNA duplex. Lipofectin reagent is incubated with OPTIMEM medium for 30 minutes prior to the addition of siRNA. The desired amount of siRNA is added and mixed. Further 1:1 dilutions are performed in OPTIMEM. Cells are washed twice with 1× phosphate buffered saline and then treated with the siRNA/Lipofectin mixture in OPTIMEM. After a 4 hr incubation period, OPTIMEM medium is replaced with complete growth medium. Cells are harvested after additional 16-20 hrs for Western blot or RT-PCR analysis.
Total RNA is isolated using RNeasy® 96 kit according to recommended protocol (Qiagen). Briefly, cells are washed with 200 ul PBS after removal of growth medium. Following washing, 100 μl buffer RLT is added, plate is shaken vigorously for about 20 seconds. To each well 100 μl 70% ethanol are added and mixed by pipetting up and down three times. Samples are then applied into the wells of the RNeasy 96 plate placed in the QIAvac top base of the QIAvac 96 manifold, which is attached to a vacuum source. Vacuum is applied for 30 seconds or until transfer is complete. To each well 80 μl of DNase I incubation mix (20 mM Tris-HCl, pH 8.4, 2 mM MgCl2, 50 mM KCl and 225 Units/ml DNase I from Invitrogen) is added and incubated at room temperature for 30 minutes. Buffer RW1 (1 ml/well) is added and the vacuum is applied for 30 seconds. Buffer RPE (1 ml/well) is added to each well and vacuum is applied for 30 seconds. Washing steps with buffer RW1 and RPE1 are repeated once more. The plate is then removed from the manifold and blotted dry on paper towels. The plate is placed back in the QIAvac manifold and the vacuum is applied for 10 minutes. To elute RNA 30 μl of RNase-free water is added directly onto the membrane of each well, incubated for 1 minutes and vacuum is applied for 30 seconds. In order to maximize the recovery of total RNA the elution step is repeated with additional 30 μl/well RNase-free water.
Quantitation of survivin and GAPDH mRNA levels is determined by real-time quantitative RT-PCR using the ABI PRISM® 7900 Sequence Detection System (Applied Biosystems). RT-PCR reactions are carried out by adding 15 ul of TaqMan One Step PCR Master Mix (Applied Biosystems, #4309169) reagents (containing 100 nM each of forward primer and reverse primer, and 200 nM probe) to 96-well plates with 10 μl total RNA. For human survivin, the forward PCR primer is: 5′[…]3′ (SEQ ID NO: 186), and the reverse primer is: 5′[…]3′ (SEQ ID NO: 187). The survivin TaqMan® probe used is 5′(FAM)[…]3′ (SEQ ID NO: 188) (Biosearch Technologies, Inc.). This primer-probe set, designed to SEQ ID No 14 was used for all experiments in Examples 15 to the end. For human GAPDH, TaqMan GAPDH Control Reagent Kit is used (Applied Biosystems, #402869). The percentage inhibition for each samples are calculated by comparing the survivin/GAPDH mRNA ratio for the sample to survivin/GAPDH mRNA ratio for the untreated control. The IC50 is derived from the non-linear regression analysis of the percentage inhibition data using GraphPad Prism software (GraphPad Software).
The constructs tested comprise the antisense strand in the 5′-3′ orientation, and the sense strand in the 5′ to 3′ orientation, In Table 15, “D” is dose response (mRNA levels) and “W” is Western blot. […]

survivin protein = assay: IC50 of dsRNA for survivin protein, quantitative Western blot ("W"); format: cell-based, human; conditions: canonical siRNA, read-out: IC50, inhibition of survivin, quantitative Western blot assay
Method: Western blot analysis (immunoblot analysis) is carried out using standard methods. Cells are harvested 16-20 hours after oligonucleotide treatment, washed once with PBS, suspended in Laemmli buffer (100 μl/well), boiled for 5 minutes and loaded on a 16% SDS-PAGE gel. Gels are run for 1.5 hours at 150 V, and transferred to membrane for western blotting. Appropriate primary antibody directed to survivin is used, with a radiolabelled or fluorescently labeled secondary antibody directed against the primary antibody species. Bands are visualized using a PHOSPHORIMAGER™ (Molecular Dynamics, Sunnyvale, Calif.).
as §1
At the end of the incubation period culture medium is removed and cells are washed twice with PBS. Cells are lysed in RIPA buffer (20 mM Tris-HCl, pH 7.4, 5 mM EDTA, 50 mM NaCl, 10 mM Sodium Pyrophosphate, 50 mM Sodium Fluoride, and 1% Nonidet P40) plus Complete™ Mini protease inhibitor tablets (Roche, #1836153) and 1 mM Sodium orthovanadate (Sigma) by directly adding buffer to the plate. Lysates are collected by scrapping, transferred to microfuge tubes and cleared from the cellular debris by centrifugation at 14,000 rpm for 30 minutes at 4° C. Protein concentrations are determined using BCA protein assay yeagents (Pierce). Total cellular protein is subjected to SDS-PAGE and transferred onto Immobilon-P membranes (Millipore, #IPVHO91). Membranes are probed with primary antibodies to survivin (R&D Systems, #AF886) and to β-Actin (Sigma, #A5441). Horseradish peroxidase linked Anti-rabbit Ig, and anti-mouse Ig, antibodies (Pharmacia) are used as secondary antibodies. Antigen-antibody complexes are visualized by incubation of membrane in SuperSigmal West Pico chemiluminescence reagents (Pierce) for 5 minutes followed by capturing of the chemiluminescence using Fluor-S imager (Biorad) equipped with the cool CCD camera. The protein bands of interest for each sample are quantified using Quantity One software (Biorad). The percentage inhibition for each samples are calculated by comparing the survivin/Actin protein ratio for the sample to survivin/Actin protein ratio for the untreated control. The IC50 is derived from the non-linear regression analysis of the percentage inhibition data using GraphPad Prism software (GraphPad Software).
The constructs tested comprise the antisense strand in the 5′-3′ orientation, and the sense strand in the 5′ to 3′ orientation, In Table 15, “D” is dose response (mRNA levels) and “W” is Western blot. All internucleoside linkages are phosphodiester unless otherwise noted by a lowercase “s” indicating a phosphorothioate linkage.

Compound U17: canonical siRNA targeted to human survivin, two deoxythymidines at 3' end of each strand (Table 14) (antisense GGAGAUCAACAUUUUCAAA; sense UUUGAAAAUGUUGAUCUCC; RNA, 3' dTdT, backbone not given here)
IC50 (human survivin mRNA): < 100 nM | IC50 (survivin protein): < 100 nM

U20: canonical siRNA targeted to human survivin, two deoxythymidines at 3' end of each strand (Table 14) (antisense GAAGGCAGUGUCCCUUUUG; sense CAAAAGGGACACUGCCUUC; RNA, 3' dTdT, backbone not given here) [Compound U20]
IC50 (human survivin mRNA): < 100 nM | IC50 (survivin protein): < 100 nM

U23: canonical siRNA targeted to human survivin, two deoxythymidines at 3' end of each strand (Table 14) (antisense CAUGGCUUUCUUAUUUUGU; sense ACAAAAUAAGAAAGCCAUG; RNA, 3' dTdT, backbone not given here) [Compound U23]
IC50 (human survivin mRNA): < 100 nM | IC50 (survivin protein): < 100 nM

U54: canonical siRNA targeted to human survivin, two deoxythymidines at 3' end of each strand (Table 14) (antisense CGGGGUGAACUUCAGGUGG; sense CCACCUGAAGUUCACCCCG; RNA, 3' dTdT, backbone not given here) [Compound U54]
IC50 (human survivin mRNA): < 100 nM | IC50 (survivin protein): < 100 nM

U36: canonical siRNA targeted to human survivin, two deoxythymidines at 3' end of each strand (Table 14) (antisense AGCAGCUGGCUGCCAUGGA; sense UCCAUGGCAGCCAGCUGCU; RNA, 3' dTdT, backbone not given here) [Compound U36]
IC50 (human survivin mRNA): < 100 nM | IC50 (survivin protein): < 100 nM

U48: canonical siRNA targeted to human survivin, two deoxythymidines at 3' end of each strand (Table 14) (antisense UCUGAGCUGCAGGUUCCUU; sense AAGGAACCUGCAGCUCAGA; RNA, 3' dTdT, backbone not given here) [Compound U48]
IC50 (human survivin mRNA): < 100 nM | IC50 (survivin protein): < 100 nM
